According to patent publication US20050086708A1, “Animal models of retinal tumorigenesis” (priority 2003, published 2005):
Some results were stated once for a whole list of compounds, not compound by compound.

Tested on: Y79 and Weril retinoblastoma cells
Experiment: Combination, time course, FACS and DNA-content studies in cultured retinoblastoma cells
Type: cell-based, human
Text: Cell Culture. Y79 and Weri1 cells were obtained from the American Type Culture Collection (Manassas, Va.) and maintained in culture in RPMI medium with 10% FCS (McFall, R. C. et al., “Characterization of a new continuous cell line derived from a human retinoblastoma”, Cancer Res 37: 1003-10 (1977)). Stable lines expressing GFP were generated by transfecting pTET-1 (M.A.D. unpublished) into Y79 and Weril cells by using TransFast (Promega, Madison, Wis.); clones were isolated in the presence of hygromycin. To measure live cells, 0.5 ug/ml calcein was used; to measure dead cells, 4 uM ethidium bromide was used.
Immunolabeling and TUNEL and BrdU Assays. […]
Fluorescent-Activated Cell Sorting. DNA content was analyzed by dissociating tumors with trypsin (Dyer, M. A. et. al., id; Zhu, C. C. et. al., id; Dyer, M. A. et. al., id) and sorting cells by fluorescent-activated cell sorting (FACS). […] Samples were then treated with RNase, filtered through a 40-um nylon mesh, and analyzed on a FACScan (Beckton-Dickson, Franklin Lakes, N.J.).
Viable Cell Calculation Following Drug Treatment. […] The proportion of cells that had initiated apoptosis (T) was determined by a TUNEL assay. […]

SMILES: CC[C@@]1(O)C(=O)OCc2c1cc1n(c2=O)Cc2cc3c(CN(C)C)c(O)ccc3nc2-1 [TPT, topotecan]
- time in which the drug acts: 10 to 30 min
